# Results reported in PubChem BioAssay AID330 (DTP/NCI, 2004).
# The list does not hold the whole screen: its compounds were picked by chemical class. Other doses and runs of a compound may be missing. T/C gives the treated animals as a percentage of the vehicle group. Some entries give survivors of the animals treated and no T/C: the source holds a T/C of zero for them, seemingly a mark for toxic or unscored doses. Some doses without a T/C left all or most animals alive at the check, yet need not have been tolerated: the source hardly ever lists a survival T/C far under the control, and the zero likely stands for such cases as well. Counts of survivors are from the toxicity check (mostly the fifth day) where no day follows; animals may have died later. Schedule codes are those of the source, taken here to give the interval after Q, in days (D) or hours (H), and the number of doses after X. Some doses were run more than once; their values stand side by side, smallest first. Where survival is the endpoint, the PubChem record calls one and a half times the control and up active, and a quarter to a half above the control has no call in these data; cut-offs in other NCI protocols can differ. Some T/C values are followed by the survivors on the day toxicity was checked, most often the fifth; without a count or a note in brackets, all were alive then.
# System: P388 leukemia ip, CD2F1 mice, survival T/C
# Assay: NCI In Vivo Anticancer Drug Screen. Data for tumor model P388 Leukemia (intraperitoneal) in CD2F1 (CDF1) mice
# Conditions: T/C endpoint: median survival time, higher T/C = longer survival
# [1] = dose: 12.5 mg/kg/injection, schedule: Q04DX003 (ip), vehicle: saline with Tween-80
# [2] = dose: 25.0 mg/kg/injection, schedule: Q04DX003 (ip), vehicle: saline with Tween-80
# [3] = dose: 50.0 mg/kg/injection, schedule: Q01DX005 (ip), vehicle: Klucel (hydroxypropylcellulose) (HPC)
# [4] = dose: 100.0 mg/kg/injection, schedule: Q01DX005 (ip), vehicle: Klucel (hydroxypropylcellulose) (HPC)
# [5] = dose: 200.0 mg/kg/injection, schedule: Q01DX005 (ip), vehicle: Klucel (hydroxypropylcellulose) (HPC)
# [6] = dose: 50.0 mg/kg/injection, schedule: Q01DX009 (ip), vehicle: saline
# [7] = dose: 100.0 mg/kg/injection, schedule: Q01DX009 (ip), vehicle: saline
# [8] = dose: 50.0 mg/kg/injection, schedule: Q01DX009 (ip), vehicle: saline with Tween-80
# [9] = dose: 200.0 mg/kg/injection, schedule: Q01DX009 (ip), vehicle: saline with Tween-80
# [10] = dose: 50.0 mg/kg/injection, schedule: Q01DX009 (ip), vehicle: Klucel (hydroxypropylcellulose) (HPC)
# [11] = dose: 100.0 mg/kg/injection, schedule: Q01DX009 (ip), vehicle: Klucel (hydroxypropylcellulose) (HPC)
# [12] = dose: 200.0 mg/kg/injection, schedule: Q01DX009 (ip), vehicle: Klucel (hydroxypropylcellulose) (HPC)
# [13] = dose: 100.0 mg/kg/injection, schedule: Q04DX003 (ip), vehicle: saline
# [14] = dose: 200.0 mg/kg/injection, schedule: Q04DX003 (ip), vehicle: saline
# [15] = dose: 400.0 mg/kg/injection, schedule: Q04DX003 (ip), vehicle: saline
# [16] = dose: 200.0 mg/kg/injection, schedule: Q01DX009 (ip), vehicle: saline
structure (smiles),measurement,setting,value
CN(C)[P+](On1nnc2ccccc21)(N(C)C)N(C)C.F[P-](F)(F)(F)(F)F,T/C,"dose: 1.87 mg/kg/injection, schedule: Q01DX005 (ip), vehicle: Klucel (hydroxypropylcellulose) (HPC)",107 % of control
same,T/C,"dose: 3.75 mg/kg/injection, schedule: Q01DX005 (ip), vehicle: Klucel (hydroxypropylcellulose) (HPC)",103 % of control
same,survivor count,"dose: 7.5 mg/kg/injection, schedule: Q01DX005 (ip), vehicle: Klucel (hydroxypropylcellulose) (HPC)",0 of 6 and 1 of 6
same,survivor count,"dose: 15.0 mg/kg/injection, schedule: Q01DX005 (ip), vehicle: Klucel (hydroxypropylcellulose) (HPC)",0 of 6
same,survivor count,"dose: 30.0 mg/kg/injection, schedule: Q01DX005 (ip), vehicle: Klucel (hydroxypropylcellulose) (HPC)",0 of 6
same,survivor count,"dose: 60.0 mg/kg/injection, schedule: Q01DX005 (ip), vehicle: Klucel (hydroxypropylcellulose) (HPC)",0 of 6
same,survivor count,"dose: 120.0 mg/kg/injection, schedule: Q01DX005 (ip), vehicle: Klucel (hydroxypropylcellulose) (HPC)",0 of 6
same,survivor count,"dose: 240.0 mg/kg/injection, schedule: Q01DX005 (ip), vehicle: Klucel (hydroxypropylcellulose) (HPC)",0 of 6
ClCCNc1nccnn1,T/C,"dose: 25.0 mg/kg/injection, schedule: Q01DX001 (ip), vehicle: saline",106 % of control
same,T/C,"dose: 50.0 mg/kg/injection, schedule: Q01DX001 (ip), vehicle: saline",100 % of control
same,T/C,"dose: 100.0 mg/kg/injection, schedule: Q01DX001 (ip), vehicle: saline",94 and 99 % of control
same,survivor count,"dose: 200.0 mg/kg/injection, schedule: Q01DX001 (ip), vehicle: saline",0 of 6
same,survivor count,"dose: 400.0 mg/kg/injection, schedule: Q01DX001 (ip), vehicle: saline",0 of 6
Cc1ccc(N2CC=C(c3ccc(Cl)cc3)OP2(=O)Cl)cc1 (stereo unspecified),T/C,"dose: 100.0 mg/kg/injection, schedule: Q04DX002 (ip), vehicle: saline with Tween-80",107 % of control
same,T/C,"dose: 200.0 mg/kg/injection, schedule: Q04DX002 (ip), vehicle: saline with Tween-80",105 % of control
same,T/C,"dose: 400.0 mg/kg/injection, schedule: Q04DX002 (ip), vehicle: saline with Tween-80",116 % of control
O=C(O)Cc1ccc(N(CCCl)CCCl)cc1,T/C,"dose: 0.75 mg/kg/injection, schedule: Q01DX009 (ip), vehicle: saline with Tween-80",122 % of control
same,T/C,"dose: 1.0 mg/kg/injection, schedule: Q04DX003 (ip), vehicle: saline",118 % of control
same,T/C,"dose: 1.5 mg/kg/injection, schedule: Q01DX009 (ip), vehicle: saline with Tween-80",118 % of control
same,T/C,"dose: 2.0 mg/kg/injection, schedule: Q04DX003 (ip), vehicle: saline",118 % of control
same,T/C,"dose: 3.0 mg/kg/injection, schedule: Q01DX009 (ip), vehicle: saline with Tween-80",154 and 227 % of control
same,T/C,"dose: 4.0 mg/kg/injection, schedule: Q04DX003 (ip), vehicle: saline",154 % of control
same,T/C,"dose: 6.0 mg/kg/injection, schedule: Q01DX009 (ip), vehicle: saline with Tween-80",95 % of control
same,T/C,"dose: 6.25 mg/kg/injection, schedule: Q04DX003 (ip), vehicle: saline with Tween-80",200 % of control
same,survivor count,"dose: 12.0 mg/kg/injection, schedule: Q01DX009 (ip), vehicle: saline with Tween-80",5 of 6
same,T/C,[1],177 % of control
same,survivor count,[2],6 of 6
CN(CCCl)/N=N/c1nc2nc[nH]c(=O)c2[nH]1,T/C,[3],100 % of control
same,T/C,[4],97 % of control
same,T/C,[5],100 % of control
CCC1COP(N(CC)CC)OC1 (stereo unspecified),T/C,"dose: 100.0 mg/kg/injection, schedule: Q01DX001 (ip), vehicle: saline with Tween-80",101 % of control
same,T/C,"dose: 200.0 mg/kg/injection, schedule: Q01DX001 (ip), vehicle: saline with Tween-80",94 % of control
same,T/C,"dose: 400.0 mg/kg/injection, schedule: Q01DX001 (ip), vehicle: saline with Tween-80",100 % of control
C/C(N)=N\P(=O)(OCc1ccccc1)OCc1ccccc1,T/C,[3],100 % of control
same,T/C,[4],94 % of control
same,T/C,[5],97 % of control [5 of 6 alive]
COc1ccc(O)c2c(=O)c3c(OC)cc4c(c3oc12)[C@@H]1C=CO[C@@H]1O4,T/C,"dose: 3.13 mg/kg/injection, schedule: Q01DX009 (ip), vehicle: saline",151 % of control
same,T/C,"dose: 6.25 mg/kg/injection, schedule: Q01DX009 (ip), vehicle: saline",151 % of control
same,T/C,"dose: 12.5 mg/kg/injection, schedule: Q01DX009 (ip), vehicle: saline",161 % of control
same,T/C,[1],116 % of control
same,T/C,"dose: 25.0 mg/kg/injection, schedule: Q01DX009 (ip), vehicle: saline",180 % of control
same,T/C,[2],165 % of control
same,T/C,[6],202 % of control
same,T/C,"dose: 50.0 mg/kg/injection, schedule: Q04DX003 (ip), vehicle: saline with Tween-80",202 % of control
same,T/C,[7],94 % of control
same,T/C,"dose: 100.0 mg/kg/injection, schedule: Q04DX003 (ip), vehicle: saline with Tween-80",145 % of control
same,T/C,"dose: 200.0 mg/kg/injection, schedule: Q04DX003 (ip), vehicle: saline with Tween-80",90 % of control
C1OP2OCC1O2,T/C,[8],111 % of control
same,T/C,[9],87 % of control
O=c1c2c3c(sc2nc2n1CC(CBr)S2)CCCC3 (stereo unspecified),T/C,[10],93 % of control
same,T/C,[11],99 % of control
same,T/C,[12],88 % of control
C1CN1.CC(N)C(=O)O.Nc1ncnc2nc[nH]c12,T/C,"dose: 12.5 mg/kg/injection, schedule: Q04DX003 (ip), vehicle: saline",112 % of control
same,T/C,"dose: 25.0 mg/kg/injection, schedule: Q04DX003 (ip), vehicle: saline",102 % of control
same,T/C,"dose: 50.0 mg/kg/injection, schedule: Q04DX003 (ip), vehicle: saline",112 % of control
same,survivor count,[13],3 of 6
same,survivor count,[14],0 of 6
same,survivor count,[15],0 of 6
CCSC(=O)SCCCl,T/C,[6],97 % of control
same,T/C,[7],94 % of control
same,T/C,[16],88 % of control
NC(N)=NP(=O)(Oc1ccccc1)Oc1ccccc1,T/C,[10],112 % of control
same,T/C,[11],101 % of control
same,T/C,[12],113 % of control
O=[N+]([O-])c1ccc(Sc2ccnc(Sc3ccc([N+](=O)[O-])cc3[N+](=O)[O-])n2)c([N+](=O)[O-])c1,T/C,"dose: 50.0 mg/kg/injection, schedule: Q01DX009 (ip), vehicle: suspension in saline",91 % of control
same,T/C,"dose: 100.0 mg/kg/injection, schedule: Q01DX009 (ip), vehicle: suspension in saline",95 % of control
same,T/C,"dose: 200.0 mg/kg/injection, schedule: Q01DX009 (ip), vehicle: suspension in saline",98 % of control [4 of 6 alive]
O=[N+]([O-])c1cc([N+](=O)[O-])c(C=Cc2c([N+](=O)[O-])cc([N+](=O)[O-])c(Cl)c2[N+](=O)[O-])c([N+](=O)[O-])c1,T/C,[13],96 % of control
same,T/C,[14],92 % of control
same,T/C,[15],101 % of control
Cc1ccc(O[S+](C)(=O)N(C)C)cc1.F[P-](F)(F)(F)(F)F (stereo unspecified),T/C,[8],107 % of control
same,T/C,"dose: 100.0 mg/kg/injection, schedule: Q01DX009 (ip), vehicle: saline with Tween-80",110 % of control
same,T/C,[9],94 % of control [5 of 6 alive]
CS(=O)(=O)OC1CSCC1OS(C)(=O)=O (stereo unspecified),T/C,[6],96 % of control [5 of 6 alive]
same,T/C,[7],87 % of control
same,survivor count,[16],6 of 6
